Percent effect of library compounds

The filed quantity is “Percent Effect” (%).
The controls that fix the scale are not given in the record; negative values are as filed.
The compounds are a random part of those screened.
Two or more numbers in one place are separate tests of the same structure; such repeats can differ widely.

A: 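Phenotypic screen: M. tuberculosis growth, cholesterol and DPPC medium, 4 days; the read-out is not stated. Compounds at 50 µM. The record gives no direction; compounds that gave an IC50 in retests scored well above the rest, so higher reads as more growth inhibition. Of about 69,000 compounds tested this way, about 370 (0.54%) reached 50% or more in at least one test.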
B: 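Growth of Mycobacterium tuberculosis over 3 days (7H9 medium with glucose and tyloxapol); the read-out is not stated. Concentration: 50 µM. Direction is inferred from retests: higher values go with more growth inhibition. Size under these conditions: about 69,000 compounds, about 760 of them at 50% or above in at least one test.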

* Cc1cc(C(N)=O)nc(C2(C)CCCN2Cc2cnn(C)c2)n1 (stereo unspecified) : A: -6.925%; B: 7.782%
* O=C(Cc1ccccc1C(F)(F)F)N1CCC2(CC1)[C@H](O)C[C@@H]2O : A: -2.853%; B: 15.74%
* CN1CC[C@]2(CN(S(C)(=O)=O)C[C@H]2c2ccccc2)C1=O : A: -13.24%; B: -8.662%
* CC(C)NS(=O)(=O)c1cc(C(=O)O)cc(-c2ccc(CN(C)C)cc2)c1 : A: -14.89%; B: -19.31%
* Cc1ccc(CC(=O)N2CCC(c3nnc4n3CCC4)CC2)cc1 : A: -8% & -0.4989%; B: -12.58%
* CN1CCN(c2nsc(-c3cccnc3)c2C#N)CC1 : A: -22.56%; B: -18.38%
* COc1ccc(CCN2CCN(C(=O)c3scnc3C)CC2)cc1 : A: 6.086%; B: 21.62% & -2.877%
* Cc1cnc(CN2CCN(C(C)c3nc(C4CC4)no3)CC2)cn1 (stereo unspecified) : A: -6.077%; B: -25.02%
* CC(C)(O)CCc1cccc(C(=O)NCc2cnn3cccnc23)c1 : A: -5.769%; B: -4.624% & -20.33%
* CC(=O)NCCNC(=O)c1ccc(C)c(-n2cccc2)c1 : A: -31.34%; B: -13.93%
* COCC1CC2(CCN(C(=O)c3ccc(OC)c(Cl)c3)CC2)CO1 (stereo unspecified) : A: -26.47%; B: -12.47%
* COCCC1(C(=O)O)CCCN(C(=O)c2cc(Cl)ccc2F)C1 (stereo unspecified) : A: -5.806%; B: 4.68%
* Cc1ccc(N2CCC3(CN(CCO)CCC3(F)F)C2)nn1.O=C(O)C(F)(F)F (stereo unspecified) : A: 4.217%; B: -2.006%
* COc1cccc2c1OCC(C(=O)N1CCN(S(=O)(=O)N(C)C)CC1)C2 (stereo unspecified) : A: -8.537% & -6.302%; B: -8.149%
* O=C(CS(=O)(=O)Cc1cc(Cl)c2c(c1)OCO2)N1CCCC1 : A: 0.556%; B: 11.5%
* O=C1NCCCC[C@@H]1NC(=O)C1(N2CCCCC2)Cc2ccccc2C1 : A: -6.131% & 4.63%; B: 15.1%
* CC(C)Cn1cc(NC(=O)NC(C)(C)c2nccs2)cn1 : A: -4.697%; B: -27.35% & 1.99%
* [H][C@]12C[C@H](C(=O)NC)N(C)[C@@]1([H])CN(C(=O)c1ccncc1F)C2 : A: -15.11%; B: -8.309%
* CC(C)(CN1CCC(Cc2cccc(C(=O)O)c2)C1)N1CCOCC1 (stereo unspecified) : A: -0.2312%; B: 5.238%
* Cc1ccc(C(=O)N2CCC(n3cc(CO)nn3)CC2)cn1 : A: -32.85%; B: -8.322%
* C1CCCN(c2nc(C3CC3)no2)CC1 : A: -1.479%; B: 6.745% & -4.231%
* CC(C(=O)NCCOc1ccc2c(c1)CCC2)n1cncn1 (stereo unspecified) : A: -37.25%; B: -27.6%
* O=C(c1sccc1C1CC1)N1CCCN(c2cccnn2)CC1 : A: -14.77%; B: -22.73%
* Cc1cccc(NC(=O)Cc2cnc3n(C)c(=O)[nH]c(=O)n23)c1 : A: -9.721%; B: -3.718%
* Cc1cnc(N2CCC3(CC2)C(c2ccccc2)CC(=O)N3C)nc1 (stereo unspecified) : A: 5.248%; B: 3.637% & 12.89%
* Cc1sc2ccccc2c1S(=O)(=O)NCCNC(=O)C(C)C : A: 2.565%; B: 27.53%
* Cc1nc(C)c(CC(=O)Nc2nnc(C(C)C)s2)c(=O)[nH]1 : A: -6.887%; B: -2.794%
* COc1ccc(CNC(=O)Nc2ccc(N3CCCC3)nc2)cc1O : A: -12.41%; B: 9.62%
* Cc1cnn(CC2CN(c3nnc(C)c(C)c3C#N)CCO2)c1 (stereo unspecified) : A: 2.448%; B: 16.66%
* O=C(O)C(F)(F)F.O=c1ccc2c([nH]1)CCC(NCc1ccc(F)cc1)C2 (stereo unspecified) : A: 12.39%; B: 6.847%
* CNC(=O)CN1CCC(CN(C)Cc2ccc(C)cc2C)CC1 : A: -11.74%; B: -13.36%
* O=C(O)Cc1nc2nccc(-c3ccc(F)cc3)n2n1 : A: -24.12%; B: -17.49%
* Cc1n[nH]c(=O)c(C(=O)N2CCN(CCc3cccs3)CC2)c1C : A: -13.62%; B: -24.82%
* CCc1cnc2c(c1NCc1ccncc1)c(=O)n(C)c(=O)n2C : A: -36.79%; B: -30.73% & -6.144%
* N#Cc1cccnc1N1CCCC(CO)(Cc2ccc(F)cc2)C1 (stereo unspecified) : A: 5.118%; B: 7.221%

Some entries from above, unchanged:

| Compound | A | B |
|---|---|---|
| `O=C(c1sccc1C1CC1)N1CCCN(c2cccnn2)CC1` | -14.77% | -22.73% |
| `Cc1cc(C(N)=O)nc(C2(C)CCCN2Cc2cnn(C)c2)n1` (stereo unspecified) | -6.925% | 7.782% |
| `Cc1nc(C)c(CC(=O)Nc2nnc(C(C)C)s2)c(=O)[nH]1` | -6.887% | -2.794% |

Source: ChEMBL document CHEMBL3988442, “University of Dundee, Small-Polar-MMV Screening Library” (2021).